The values that follow come from US20210380977, “MYOCARDIAL ENHANCER RNA AND METHODS OF USE” (THE TRUSTEES OF INDIANA UNIVERSITY, published 2021).

The target in this data set is T1, CTCF (UniProt P49711).
T1 sequence (looked up, limits assumed): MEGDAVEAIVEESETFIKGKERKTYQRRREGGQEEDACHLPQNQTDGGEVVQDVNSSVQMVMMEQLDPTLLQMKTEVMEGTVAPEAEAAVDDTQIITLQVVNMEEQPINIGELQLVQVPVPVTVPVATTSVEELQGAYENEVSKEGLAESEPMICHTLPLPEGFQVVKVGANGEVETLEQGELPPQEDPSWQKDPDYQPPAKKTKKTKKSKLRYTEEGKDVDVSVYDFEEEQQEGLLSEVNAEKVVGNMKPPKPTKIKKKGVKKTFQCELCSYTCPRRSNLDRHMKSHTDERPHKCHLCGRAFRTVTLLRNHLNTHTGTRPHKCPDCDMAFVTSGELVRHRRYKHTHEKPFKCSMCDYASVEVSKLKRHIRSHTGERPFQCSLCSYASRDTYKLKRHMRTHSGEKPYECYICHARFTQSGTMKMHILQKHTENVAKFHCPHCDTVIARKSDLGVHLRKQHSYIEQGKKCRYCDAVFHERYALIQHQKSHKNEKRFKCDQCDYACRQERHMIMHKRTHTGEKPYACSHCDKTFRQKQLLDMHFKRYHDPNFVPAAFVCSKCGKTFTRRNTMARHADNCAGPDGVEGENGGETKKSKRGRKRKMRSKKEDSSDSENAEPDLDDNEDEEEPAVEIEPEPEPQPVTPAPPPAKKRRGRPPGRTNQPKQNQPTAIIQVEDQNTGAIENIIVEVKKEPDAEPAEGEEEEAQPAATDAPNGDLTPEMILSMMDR
Kind of data set: EMSA. To be noted: purified recombinant protein; protein details: Abnova H00010664-P01; label: 5' biotin on the DNA strand; DNA:RNA hybrid; variant of eDNA CTCF site dsDNA probe. For orientation: Mobility shift assays separate free from complexed probe on a gel.

Construct, isoform or probe ends are uncertain for at least one entry. Negatives hold for the conditions tested. Protein sequences can lack the tags named with them.

As to “GGTCAGCCACACAACAGAGGGGGTGGCACAGCTCTTGGGA [Uhrt-eDNA hybrid CTCF site probe]”, the binding result is on record as “no binding”.
